Test results: article PMC3546041
These are yes or no findings as the source states them, for the method shown. Binding seen in cells or lysates may run through a third protein. Some entries that bind do so weakly or less than the wild type. Sequences can lack the tags named with a protein.

T1: GFP-fused MBD2 NH2-terminal domain (amino acids 1-152) (Sf9) (mouse) (UniProt Q9Z2E1)
T1 sequence: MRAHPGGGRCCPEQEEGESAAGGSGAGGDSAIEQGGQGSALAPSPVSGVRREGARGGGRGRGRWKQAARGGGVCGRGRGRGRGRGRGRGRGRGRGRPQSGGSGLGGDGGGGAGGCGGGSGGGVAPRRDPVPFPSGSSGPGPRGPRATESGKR

T2: GFP-fused MBD2 NTD (HEK 293) (mouse) (UniProt Q9Z2E1)
T2 sequence: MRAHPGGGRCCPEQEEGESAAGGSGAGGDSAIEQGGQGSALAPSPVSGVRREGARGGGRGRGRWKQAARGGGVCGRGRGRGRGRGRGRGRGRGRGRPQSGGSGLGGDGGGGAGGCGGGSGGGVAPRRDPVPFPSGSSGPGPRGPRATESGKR

B1: RFP-fused MBD2 NH2-terminal domain (amino acids 1-152) (Sf9) (domain or fragment, UniProt Q9Z2E1 1-152)
chain: MRAHPGGGRCCPEQEEGESAAGGSGAGGDSAIEQGGQGSALAPSPVSGVRREGARGGGRGRGRWKQAARGGGVCGRGRGRGRGRGRGRGRGRGRGRPQSGGSGLGGDGGGGAGGCGGGSGGGVAPRRDPVPFPSGSSGPGPRGPRATESGKR
B2: RFP-fused MBD2 NTD (HEK 293) (domain or fragment, UniProt Q9Z2E1 1-152)
chain: MRAHPGGGRCCPEQEEGESAAGGSGAGGDSAIEQGGQGSALAPSPVSGVRREGARGGGRGRGRWKQAARGGGVCGRGRGRGRGRGRGRGRGRGRGRPQSGGSGLGGDGGGGAGGCGGGSGGGVAPRRDPVPFPSGSSGPGPRGPRATESGKR

What was measured:
[1] = molecular target: GFP-fused MBD2 COOH-terminus (amino acids 153-414) (Sf9) (mouse) (UniProt Q9Z2E1); test: pull-down; YFP- or GFP-fused MeCP2 or MBD2 constructs immobilised on GBP-sepharose beads; RFP- or Cherry-fused proteins in solution; proteins extracted with 1 M NaCl lysis buffer; PBS plus 125 mM NaCl, 0.05% NP-40; Western blot with anti RFP; only the target purified
[2] = molecular target: T1, GFP-fused MBD2 NH2-terminal domain (amino acids 1-152) (Sf9) (mouse); test: as above
[3] = molecular target: T2, GFP-fused MBD2 NTD (HEK 293) (mouse); test: co-IP; HEK293-EBNA cells co-expressing GFP- and RFP-tagged domains; lysis and GBP-bound beads in 200 mM NaCl; complexes washed with buffer containing 300 mM NaCl; Western blot with anti RFP
[4] = molecular target: T2, GFP-fused MBD2 NTD (HEK 293) (mouse); test: co-IP; HEK293-EBNA cells co-expressing GFP- and RFP-tagged domains; lysis, GBP-bound beads and washes in buffer with 200 mM NaCl; Western blot with anti RFP

Binder	binding [1]	binding [2]	binding [3]	binding [4]
B1	binds	binds	–	–
B2	–	–	binds	binds
